## Assay results

Data taken from PubChem BioAssay AID1224904, deposited by Broad Institute (2016).

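Selective DUX4 reporter inhibition in doxycycline-induced 293T-iDUX4 cells, scored as Gaussia percent activity minus Italica percent activity, after a 24-hour treatment.
The test concentration is not given here.
Percent difference between the Gaussia and Italica channels; more negative values mean more selective suppression of the DUX4 reporter, and higher values mean less activity.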

Values are in %.
The controls that fix the scale are not given here.
Common to all entries: measured here: selective DUX4 reporter inhibition.
This is a side read-out of the assay, for part of the compounds, not drawn at random.

| compound | Gaussia minus Italica difference (%) |
|---|---|
| `O=C(Cc1ccccn1)N1CCCCN2[C@H](CO)[C@H](c3ccc(-c4ccccc4F)cc3)[C@@H]2C1` | -3.469 |
| `C[C@H]1CN([C@@H](C)CO)C(=O)CCCn2nncc2CO[C@H]1CN(C)Cc1ccccc1C(F)(F)F` | -8.951 |
| `O=C(c1ccccc1)N1CC(=O)N2[C@H](C1)[C@H](c1ccc(/C=C/c3ccccc3)cc1)[C@@H]2CO` | -16.5 |
| `O=C(C[C@@H]1C[C@H]2c3cc(NC(=O)c4ccc5c(c4)OCO5)ccc3O[C@H]2[C@H](CO)O1)NCc1ccc(Cl)cc1` | -17.36 |
| `COc1ccccc1CN1C[C@@H]2N[C@H](C1)C2c1ccc(-c2ccc(C(=O)N(C)C)cc2)cc1` (some centres unmarked) | -6.903 |
| `O=C(Nc1cccc(F)c1)N1CC(=O)N2[C@H](CO)[C@H](c3ccc(C#CC4CC4)cc3)[C@H]2C1` | 4.82 |
| `CN(C)Cc1cn(CC[C@@H]2CC[C@H](NS(=O)(=O)c3ccc(-c4ccccc4)cc3)[C@H](CO)O2)nn1` | 6.49 |
| `O=C(C[C@H]1CC[C@H](NC(=O)Nc2cc(F)ccc2F)[C@@H](CO)O1)Nc1ccc(-c2ccccc2)cc1` | -9.982 |
| `N#Cc1ccc(-c2ccc(C3[C@@H]4CN(C(=O)Nc5ccc(C(F)(F)F)cc5)C[C@H]3N4)cc2)cc1` (some centres unmarked) | 22.43 |
| `CCCC(=O)Nc1ccc2c(c1)C(=O)N(C)C[C@@H](OC)[C@H](C)CN(Cc1cc(-c3ccccc3)on1)[C@H](C)CO2` | -9.075 |
| `O=C(C1CCOCC1)N1CC[C@@H]2[C@H]1c1cc(-c3ccc(F)cc3)ccc1N[C@@H]2CO` | -3.995 |
| `O=C(C[C@@H]1CC[C@H]2[C@@H](COC[C@H](O)CN2Cc2ccc(Cl)cc2)O1)Nc1nccs1` | -21.8 |
| `N#C[C@H]1[C@H](c2ccccc2C2=CCCCC2)[C@@H](CO)N1C(=O)NC1CCCC1` | -1.179 |
| `O=C(C[C@H]1CC[C@H]2[C@@H](COC[C@@H](O)CN2Cc2cc(F)ccc2F)O1)NCc1ccc(Cl)cc1` | -9.462 |
| `CCCNC(=O)N1[C@H](CO)[C@H](c2ccccc2-c2ccccc2)[C@@H]1C#N` | -4.798 |
| `O=C(C[C@H]1CC[C@H]2[C@@H](COC[C@@H](O)CN2S(=O)(=O)c2ccccc2Cl)O1)NCc1ccccc1Cl` | -12.78 |
| `Cc1ccccc1S(=O)(=O)N1CC[C@@H]2[C@H]1c1cc(-c3cccc(C#N)c3)ccc1N[C@@H]2CO` | 11.27 |
| `O=C(C[C@H]1CC[C@@H]2[C@H](COC[C@H](O)CN2Cc2nccs2)O1)NCc1ccc(-c2ccccc2)cc1` | 4.033 |
| `Cc1ccc(S(=O)(=O)N2CC[C@@H]3[C@@H](CO)N(C)c4ccc(-c5ccc(C#N)cc5)cc4[C@@H]32)cc1` | 10.04 |
| `C[C@H](CO)N1C[C@H](C)[C@@H](CN(C)S(=O)(=O)c2cccs2)OCc2ccccc2-c2c(n(C)c3ccccc23)C1=O` | -16.04 |
| `Cc1ccc(S(=O)(=O)N2C[C@@H](O)COC[C@@H]3O[C@@H](CC(=O)NCc4ccc(Cl)c(Cl)c4)CC[C@H]32)cc1` | 1.5 |
| `O=C(C[C@@H]1CC[C@@H]2[C@H](COC[C@H](O)CN2Cc2cccc(Cl)c2)O1)NCC1CCCCC1` | -5.11 |
| `Cc1ccccc1-c1ccc([C@H]2[C@@H](CO)N3CCCCN(S(=O)(=O)c4ccc(F)cc4)C[C@@H]23)cc1` | -1.236 |
| `COc1ccc2c3c(n(C)c2c1)[C@@H](CO)N(C(C)=O)CC31CN(C(=O)c2ccccc2)C1` | -15.68 |
| `O=C(C[C@H]1C[C@@H]2c3cc(NC(=O)c4ccc5c(c4)OCO5)ccc3O[C@@H]2[C@@H](CO)O1)NCc1cccc(F)c1` | -2.493 |
| `O=C(Cc1ccccc1)N1CC[C@@H]2[C@H](CO)Nc3ccc(-c4cccc(F)c4)cc3[C@@H]21` | 8.776 |
| `Cc1ccccc1S(=O)(=O)N1CCCCN2[C@H](CO)[C@@H](c3ccc(-c4cccnc4)cc3)[C@@H]2C1` | -11.74 |
| `CO[C@H]1CN(C)C(=O)c2cc(NC(=O)Nc3ccc(Cl)c(Cl)c3)ccc2OC[C@H](C)NC[C@@H]1C` | 6.268 |
| `N#Cc1cccc(-c2ccc3c(c2)[C@H]2[C@H](CCN2Cc2ccc4c(c2)OCO4)[C@@H](CO)N3)c1` | -9.685 |
| `COc1ccc2c3c([nH]c2c1)[C@@H](CO)N(Cc1ccc(F)cc1)CC31CCN(C)CC1` | 27.27 |
| `O=C(Nc1ccccc1F)N1CCCCN2[C@@H](CO)[C@@H](c3ccc(/C=C/c4ccccc4)cc3)[C@@H]2C1` | 8.655 |
| `Cc1ccccc1S(=O)(=O)N(C)C[C@H]1OCc2ccccc2-c2c(n(C)c3ccccc23)C(=O)N([C@@H](C)CO)C[C@H]1C` | -17.53 |
| `Cc1cccc(S(=O)(=O)N2C[C@@H]3N[C@H](C2)C3c2ccc(-c3ccncc3)cc2)c1` (some centres unmarked) | -20.21 |
| `CCCC#Cc1ccc([C@H]2[C@@H](CO)N3C(=O)CN(C(=O)Nc4cccc(F)c4)C[C@@H]23)cc1` | 6.083 |
| `CC(C)CC#Cc1ccc([C@@H]2[C@@H](CO)N3CCCCN(C(=O)NC4CCCC4)C[C@H]23)cc1` | 3.136 |
| `C[C@@H]1CN([C@@H](C)CO)C(=O)c2c(c3ccccc3n2C)-c2ccccc2CO[C@@H]1CN(C)Cc1ccccc1C(F)(F)F` | -4.306 |
| `Cc1ccc(S(=O)(=O)N[C@H]2C=C[C@H](CC(=O)NCc3ccc(Cl)c(Cl)c3)O[C@@H]2CO)cc1` | -5.931 |
| `O=C(Cc1ccccn1)NCC[C@@H]1CC[C@H](NC(=O)Nc2ccc(C(F)(F)F)cc2)[C@H](CO)O1` | 0.4315 |
| `COc1ccc(C#Cc2ccc3c(c2)[C@H]2[C@H](CCN2S(=O)(=O)c2cccc(OC)c2)[C@H](CO)N3C)cc1` | -20.13 |
| `O=C(C[C@@H]1C[C@H]2c3cc(NS(=O)(=O)c4ccc(F)cc4)ccc3O[C@H]2[C@@H](CO)O1)N1CCc2ccccc2C1` | 0.7336 |
| `O=C(C[C@H]1CC[C@H]2[C@@H](COC[C@@H](O)CN2S(=O)(=O)c2cccc(Cl)c2)O1)Nc1ccc(-c2ccccc2)cc1` | -3.425 |
| `COc1ccc2c3c([nH]c2c1)[C@@H](CO)N(C(=O)c1ccccc1)CC31CCN(C(=O)NC(C)C)CC1` | -13.08 |
| `O=C(C[C@H]1C[C@H]2c3cc(NC(=O)Cc4ccncc4)ccc3O[C@H]2[C@@H](CO)O1)NCc1ccc(-c2ccccc2)cc1` | -19.94 |
| `C[C@@H]1CN([C@@H](C)CO)C(=O)c2c(c3ccccc3n2C)-c2ccccc2CO[C@H]1CN(C)S(=O)(=O)c1ccc(C#N)cc1` | -7.292 |
| `COc1ccc2c3c([nH]c2c1)[C@H](CO)N(C(=O)Nc1ccc(F)cc1)CC31CCN(S(C)(=O)=O)CC1` | -2.097 |
| `COc1ccc2c3c(n(C)c2c1)[C@H](CO)N(C(=O)Nc1ccc(F)cc1)CC31CN(Cc2cccc(F)c2)C1` | -6.797 |
| `CC(=O)N1CCCCN2[C@H](CO)[C@H](c3ccc(C#Cc4ccccc4F)cc3)[C@H]2C1` | 4.073 |
| `COc1ccc2c3c(n(C)c2c1)[C@@H](CO)NCC31CCN(Cc2cc(-c3ccccc3)on2)CC1` | 8.58 |
| `COc1cccc(S(=O)(=O)N2C[C@@H]3N[C@H](C2)C3c2ccc(-c3cccc(C)c3)cc2)c1` (some centres unmarked) | -16.15 |
| `O=C(C[C@H]1CC[C@@H]2[C@H](COC[C@H](O)CN2Cc2ccc(C(F)(F)F)cc2)O1)NCCc1ccccc1` | -8.281 |
| `CN1c2ccc(-c3cccc(C#N)c3)cc2[C@H]2[C@H](CCN2C(=O)NC2CCCC2)[C@@H]1CO` | -1.974 |
| `O=C(C1CC1)N1CC[C@@H]2[C@H](CO)Nc3ccc(Br)cc3[C@@H]21` | -10.93 |
| `CCCNC(=O)N1CC[C@@H]2[C@@H](CO)N(C)c3ccc(-c4ccc(F)cc4)cc3[C@@H]21` | 17.52 |
| `COc1ccccc1S(=O)(=O)N(C)C[C@@H]1OCc2ccccc2-c2c(n(C)c3ccccc23)C(=O)N([C@@H](C)CO)C[C@H]1C` | -2.947 |
| `COc1ccccc1CN1[C@@H](CO)[C@@H](c2ccccc2)C12CN(C(=O)Cc1ccccc1)C2` | -0.107 |
| `O=C(C[C@H]1C[C@H]2c3cc(NC(=O)c4ccc5c(c4)OCO5)ccc3O[C@H]2[C@H](CO)O1)NCc1cc(F)ccc1F` | -17.68 |
| `COc1ccccc1S(=O)(=O)N1CC[C@@H]2[C@H](CO)Nc3ccc(-c4ccccc4)cc3[C@@H]21` | 29.85 |

Once more, the final 5:

For CCCNC(=O)N1CC[C@@H]2[C@@H](CO)N(C)c3ccc(-c4ccc(F)cc4)cc3[C@@H]21 the result was Gaussia minus Italica difference 17.52%.
For COc1ccccc1S(=O)(=O)N(C)C[C@@H]1OCc2ccccc2-c2c(n(C)c3ccccc23)C(=O)N([C@@H](C)CO)C[C@H]1C the result was Gaussia minus Italica difference -2.947%.
For COc1ccccc1CN1[C@@H](CO)[C@@H](c2ccccc2)C12CN(C(=O)Cc1ccccc1)C2 the result was Gaussia minus Italica difference -0.107%.
For O=C(C[C@H]1C[C@H]2c3cc(NC(=O)c4ccc5c(c4)OCO5)ccc3O[C@H]2[C@H](CO)O1)NCc1cc(F)ccc1F the result was Gaussia minus Italica difference -17.68%.
For COc1ccccc1S(=O)(=O)N1CC[C@@H]2[C@H](CO)Nc3ccc(-c4ccccc4)cc3[C@@H]21 the result was Gaussia minus Italica difference 29.85%.